Measured values taken from patent publication US20240199455A1, “REMOVAL OF TOXIC OXYANIONS BY CO-CRYSTALLIZATION WITH SULFATE” (UT-Battelle, LLC, priority 2022, published 2024).
At least one structure is not confirmed: it was looked up by name or label, or the drawing left a doubt.

Columns and labels:
[1] = Crystallization at constant 2.5 mM sulfate and decreasing selenate (2.5 mM to 2.5 μM); conditions: 2.5 mM sulfate, 2 equiv BIG
Protocol: In a typical experiment, BIG chloride was added to wastewater containing sulfate, selenate, and/or selenite anions, and immediately upon addition, a white precipitate formed. The resulting suspensions were mixed for 24 h using a rotator set at 60 rpm inside an incubator set to 25 C. The samples were then removed and centrifuged for 10 min at 3000 rpm to separate the aqueous and solid phases. In the field, the suspended solids were filtered through a filter press. A 1 mL aliquot was then removed from each sample and passed through a 0.02 μm syringe filter to ensure any suspended solid was removed from the filtrate prior to diluting the samples in 2% HNO3 for ICP-MS analysis. To recover the BIG ligand, 2.1 equiv. of NaOH (or adjusted to a pH of 11) was added to a suspension of the BIG-oxyanion salts in a 15 mL polypropylene centrifuge tube. The suspension was mixed for 24 h at 60 rpm. The suspended BIG neutral solid was filtered from the supernatant solutions containing the oxyanions dissolved as soluble sodium salts. […]
Crystallization experiments were carried out keeping sulfate at a constant concentration and decreasing the selenate concentration while maintaining constant ionic strength to mimic wastewater conditions. […] The same trend is observed for PyBIG, with near quantitative removal of both sulfate and selenate.

[2] = Crystallization of individual oxyanion (5 mM) with BIG chloride, ICP-MS of filtrate
Protocol: (§1) In a typical experiment, BIG chloride was added to wastewater containing sulfate, selenate, and/or selenite anions, and immediately upon addition, a white precipitate formed. The resulting suspensions were mixed for 24 h using a rotator set at 60 rpm inside an incubator set to 25 C. The samples were then removed and centrifuged for 10 min at 3000 rpm to separate the aqueous and solid phases. In the field, the suspended solids were filtered through a filter press. A 1 mL aliquot was then removed from each sample and passed through a 0.02 μm syringe filter to ensure any suspended solid was removed from the filtrate prior to diluting the samples in 2% HNO3 for ICP-MS analysis. To recover the BIG ligand, 2.1 equiv. of NaOH (or adjusted to a pH of 11) was added to a suspension of the BIG-oxyanion salts in a 15 mL polypropylene centrifuge tube. The suspension was mixed for 24 h at 60 rpm. The suspended BIG neutral solid was filtered from the supernatant solutions containing the oxyanions dissolved as soluble sodium salts. The BIG chloride salts were then regenerated by the addition of 0.1 M HCl to the neutral ligands. This process is depicted schematically in FIG. 5.
Crystallization studies with BBIG and individual sulfate, selenate, or selenite anions (5 mM) were performed, while the concentration of BIGs was increased from one to ten molar equivalents. […] On the other hand, only approximately half (53.0%, FIG. 2a) of the selenite was removed from the solution with 1 equivalent of BBIG, which can be attributed to its propensity to form HScO3^−, by deprotonating BBIG in the process. […] Once again, selenite was removed to a lesser extent (70.7%) with 1 equivalent of PyBIG (FIG. 2b).

[3] = Cocrystallization from simulated Bull Run groundwater
Protocol: as §1
The efficacies of sulfate and selenate removal with BBIG and PyBIG ligands were next tested with simulated wastewater to determine if the EPA's 5 ppb discharge limit was achievable. The initial concentrations of sulfate and selenate in the simulated wastewater were based on typical values found in groundwaters monitored at the Bull Run steam plant of Tennessee Valley Authority (TVA). The simulated Bull Run groundwater contained an 8985-fold excess concentration of sulfate relative to selenate, with sulfate and selenate concentrations of 5.84±0.11 mM and 0.65±0.07 μM, respectively. Cocrystallization studies were performed with 1 and 2 mol equiv of BBIG or PyBIG. […] On the other hand, selenate removal was near quantitative with 2 equiv of BBIG (FIG. 4a).

[4] = Cocrystallization from simulated Bull Run leachate
Protocol: as §1
A more concentrated simulated wastewater solution based on Bull Run's leachate water that has leached from fly ash beds was also tested with BBIG and PyBIG. The concentrations of sulfate and selenate in the simulated leachate were 48.49±0.7 mM and 2.37±0.16 μM, respectively, with sulfate concentration being 20,460 times higher than that of selenate. In the case of BBIG, 1 equiv removed 96.3% and 95.4% sulfate and selenate, respectively, while 2 equiv removed sulfate and selenate near quantitatively at 99.90% and 99.94%, respectively, with a final Se concentration of 8.59±0.62 ppb (1 equiv) and 0.20±0.01 ppb (2 equiv). In the case of PyBIG, 89.2% and 85.5% sulfate and selenate, respectively, were removed with 1 equiv, and 99.98% and 99.99%, respectively with 2 equiv. The final Se concentrations after cocrystallization with PyBIG were 27.23±0.92 ppb (1 equiv) and 0.02±0.01 ppb (2 equiv), reaching the limit of detection. […] In fact, the large excess of sulfate present in the wastewaters appears to help remove trace amounts of selenate by cocrystallization with BBIG or PyBIG, down to sub-ppb levels of Se.

[5] = Cocrystallization from equimolar sulfate/selenate mixture (2.5 mM each); conditions: for selenate removal / sulfate removal: 2.5 mM sulfate + 2.5 mM selenate; for ratio of sulfate to selenate % removal: equimolar mixture
Protocol: as §1
Concomitant crystallization of sulfate and selenate with either BBIG or PyBIG led to near quantitative removal of both oxyanions from equimolar aqueous mixtures. Cocrystallization experiments were carried out keeping the concentration of sulfate and selenate at near equimolar concentrations of 2.5 mM, while the BIG concentrations were increased gradually from 5 to 50 mM. […] At higher BBIG concentrations, the oxyanion removal remained near quantitative. Referring to the ratio of sulfate to selenate % removal, a ratio of 1.0 indicates there is no preference for sulfate over selenate. […] At relative ligand concentrations higher than 1 equivalent of BBIG, the ratio of removal efficiencies approaches 1, indicating no preference between the two oxyanions by crystallization under these conditions.
PyDIG also quantitatively removed sulfate and selenate at higher BIG concentrations. […] Increasing the PyBIG concentration achieved a ratio of approximately 1, indicating no discrimination between sulfate and selenate with excess PyBIG. With both BBIG and PyBIG, it appears the 2:1 BIG:oxyanions ratio is ideal for effectively removing SO4^2− and SeO4^2− anions from solution with minimal excess of the BIG ligands.

[6] = simulated groundwater (5.84 mM sulfate, 0.65 μM selenate), 1 equiv BIG
[7] = simulated groundwater, 2 equiv BIG
[8] = simulated leachate (48.49 mM sulfate, 2.37 μM selenate), 1 equiv BIG
[9] = simulated leachate, 2 equiv BIG
[10] = 1 molar equivalent BIG relative to total oxyanion
[11] = BIG increased to 2 equivalents (PyBIG: increased concentration, plateau after 2 equivalents)

Compound `N=C(N)N/N=C/c1ccc(/C=N/NC(=N)N)cc1` [BBIG, benzenedialdehyde-bis(iminoguanidinium)] has a selenate removal [1] of 99.4%, a sulfate removal [1] of 99.2% and a selenate removal efficiency ([2]; 5 mM selenate alone, BIG at twice the oxyanion concentration (10 mM)) of 99.2%. For the same compound, the selenite removal efficiency ([2]; 5 mM selenite alone, 1 equivalent BIG) was 53.0%, the sulfate removal efficiency ([2]; 5 mM sulfate alone, BIG at twice the oxyanion concentration (10 mM)) was 99.7% and the selenate removal [3, 6] was 94.8%. For the same compound, the sulfate removal [3, 6] was 98.1%, the “final Se concentration” value ([3]; simulated groundwater, 1 equiv BIG) was 2.67±1.22 ppb and the “final Se concentration” value [3, 7] was 0.22±0.26 ppb. For the same compound, the selenate removal [3, 7] was 99.6%, the sulfate removal [3, 7] was 99.4% and the sulfate-to-selenate removal ratio ([4]; simulated groundwater and leachate) was “approximately one”. The selenate removal [4, 8] was 95.4%, the sulfate removal [4, 8] was 96.3% and the “final Se concentration” value ([4]; simulated leachate, 1 equiv BIG) was 8.59±0.62 ppb. The “final Se concentration” value [4, 9] was 0.20±0.01 ppb, the selenate removal [4, 9] was 99.94% and the sulfate removal [4, 9] was 99.90%. The selenate removal [5, 10] was 60.2%, the sulfate removal [5, 10] was 80.6% and the selenate removal [5, 11] was 99.0%. For the same compound, the sulfate removal [5, 11] was 99.2%, the “ratio of sulfate to selenate % removal” value ([5]; 1 equivalent BIG, 1.0 = no preference) was 1.34 and the “ratio of sulfate to selenate % removal” value ([5]; more than 1 equivalent (excess) BIG) was ~1.
